Source: PubChem BioAssay AID1259424 (University of Nebraska Medical Center, 2018)
Shown is a random part of about 14,000 reagents tested. 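Higher correlation or smaller distance means closer resemblance to KSR1 loss; control wells, including KSR1 knockdowns, recur on many plates.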 Further read-outs or replicates are left out here. The record does not give: the time to read-out.

Purpose: 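Find knockdowns that reproduce the expression shifts seen after KSR1 loss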 (primary screen)
System: human HCT116 colon cancer cells
Reagents: siRNA pool against human genes, 50 nM
Detection: 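Log2 levels of six mRNAs (branched-DNA multiplex), adjusted by two reference genes and the non-targeting median, then scored against the average KSR1 knockdown pattern as Pearson r and euclidean distance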
Direction: mean correlation with KSR1 profile: higher = expression change more like KSR1 knockdown; mean distance from KSR1 profile: higher = expression change less like KSR1 knockdown

For SLC4A10 (GeneID 57282) the deposit lists mean correlation with KSR1 profile 0.306; mean distance from KSR1 profile 2.34.
After knock-down of PIR (GeneID 8544), the screen gave mean correlation with KSR1 profile -0.269; mean distance from KSR1 profile 1.64.
For SRC (GeneID 6714), the entry reads mean correlation with KSR1 profile 0.564; mean distance from KSR1 profile 1.17.
With knock-down of PDZD11 (GeneID 51248), the record shows mean correlation with KSR1 profile 0.723; mean distance from KSR1 profile 0.766.
Against MCUR1 (GeneID 63933), the values are mean correlation with KSR1 profile -0.0139; mean distance from KSR1 profile 6.19.
With knock-down of EIF3J (GeneID 8669), the record shows mean correlation with KSR1 profile -0.127; mean distance from KSR1 profile 3.75.
Against GSTK1 (GeneID 373156), the entry reads mean correlation with KSR1 profile 0.0568; mean distance from KSR1 profile 2.2.
For PAPSS1 (GeneID 9061), the values are mean correlation with KSR1 profile -0.494; mean distance from KSR1 profile 2.81.
With knock-down of PRKAB2 (GeneID 5565), the screen gave mean correlation with KSR1 profile 0.602; mean distance from KSR1 profile 2.12.
ZFAND3 (GeneID 60685) showed mean correlation with KSR1 profile 0.268; mean distance from KSR1 profile 3.79.
Silencing of CFAP263 (GeneID 29070) gave: mean correlation with KSR1 profile -0.458; mean distance from KSR1 profile 3.08.
With knock-down of IL36A (GeneID 27179), the record shows mean correlation with KSR1 profile 0.61; mean distance from KSR1 profile 1.75.
DDA1 (GeneID 79016) gave mean correlation with KSR1 profile 0.811; mean distance from KSR1 profile 2.22.
With knock-down of EXOC3 (GeneID 11336), the screen gave mean correlation with KSR1 profile -0.0706; mean distance from KSR1 profile 3.31.
After knock-down of FN1 (GeneID 2335) the results were mean correlation with KSR1 profile -0.00958; mean distance from KSR1 profile 1.64.
With knock-down of HAT1 (GeneID 8520) the results were mean correlation with KSR1 profile 0.0753; mean distance from KSR1 profile 1.64.
With knock-down of TNNC1 (GeneID 7134), the screen gave mean correlation with KSR1 profile 0.0931; mean distance from KSR1 profile 2.74.
For SKAP1 (GeneID 8631), the entry reads mean correlation with KSR1 profile -0.388; mean distance from KSR1 profile 2.78.
Depletion of CFP (GeneID 5199) resulted in: mean correlation with KSR1 profile -0.0887; mean distance from KSR1 profile 1.72.
After knock-down of P2RY10 (GeneID 27334), the screen gave mean correlation with KSR1 profile 0.66; mean distance from KSR1 profile 1.74.
KAT14 (GeneID 57325) showed mean correlation with KSR1 profile -0.102; mean distance from KSR1 profile 3.14.
For MTM1 (GeneID 4534), the values are mean correlation with KSR1 profile -0.174; mean distance from KSR1 profile 2.26.
Silencing of STARD5 (GeneID 80765) gave: mean correlation with KSR1 profile -0.392; mean distance from KSR1 profile 2.27.
AATF (GeneID 26574) showed mean correlation with KSR1 profile -0.666; mean distance from KSR1 profile 2.96.
Depletion of HES4 (GeneID 57801) gave: mean correlation with KSR1 profile 0.318; mean distance from KSR1 profile 3.36.
After knock-down of ACHE (GeneID 43), the record shows mean correlation with KSR1 profile -0.505; mean distance from KSR1 profile 2.13.
For XRCC3 (GeneID 7517), the entry reads mean correlation with KSR1 profile -0.682; mean distance from KSR1 profile 2.08.
SPINT1 (GeneID 6692) scored mean correlation with KSR1 profile 0.41; mean distance from KSR1 profile 0.862.

Limited to “mean distance from KSR1 profile”, for 3 of the entries above:
TNNC1 (GeneID 7134) = 2.74
SKAP1 (GeneID 8631) = 2.78
CFP (GeneID 5199) = 1.72
